# Measurements as given in patent US9382228B2 (priority 2013, dated 2016).
# Some entries share one result that the patent states for a list of compounds.
# System: c-FMS
# Assay: cFOS mRNA production in a c-FMS mouse spleen pharmacodynamic model
# Assay type: in vivo
# Conditions: M-CSF stimulated, out to 8 h post 30 mg/kg dose, single oral dose
row,SMILES,inhibition of cFOS mRNA levels
1,"COC(C)(C)C(=O)NC(=O)Nc1ccc(Oc2ccnc(-c3cnn(C)c3)c2)cn1 [Example 55, 2-methoxy-2-methyl-N-((5-((2-(1-methyl-1H-pyrazol-4-yl)pyridin-4-yl)oxy)pyridin-2-yl)carbamoyl)propanamide]",≥ 50%
2,"Cc1cn(-c2cc(Oc3ccc(NC(=O)NC(=O)C(C)(C)C)nc3)ccn2)cn1 [Example 99, N-((5-((2-(4-methyl-1H-imidazol-1-yl)pyridin-4-yl)oxy)pyridin-2-yl)carbamoyl)pivalamide]",≥ 50%
3,"CCOC(C)(C)C(=O)NC(=O)Nc1ccc(Oc2ccnc(-c3cnn(C)c3)c2)cn1 [Example 123, 2-ethoxy-2-methyl-N-((5-((2-(1-methyl-1H-pyrazol-4-yl)pyridin-4-yl)oxy)pyridin-2-yl)carbamoyl)propanamide]",≥ 50%
4,"COC(C)(C)C(=O)NC(=O)Nc1ccc(Oc2ccnc(-n3cnc(C)c3)c2)cn1 [Example 130, 2-methoxy-2-methyl-N-((5-((2-(4-methyl-1H-imidazol-1-yl)pyridin-4-yl)oxy)pyridin-2-yl)carbamoyl)propanamide]",≥ 50%
5,"COC(C)(C)C(=O)NC(=O)Nc1ccc(Oc2ccnc(-c3ccnc(C)c3)c2)cn1 [Example 160, 2-methoxy-2-methyl-N-((5-((2′-methyl-[2,4′-bipyridin]-4-yl)oxy)pyridin-2-yl)carbamoyl)propanamide]",≥ 50%
